Experimental data published in PubChem BioAssay AID504834 (National Center for Advancing Translational Sciences (NCATS), 2011).
Hit rate of the full screen: of about 320,000 compounds, about 22,000 (6.9%) were called active. Inconclusive means that the source gave no clear call. Such entries were picked first, then a sample of the others. Calls follow the shape of the dose curve; as a rule, active = well fitted inhibition curve with a large enough effect; inconclusive = small, poorly fitted or top-dose-only effect, or another doubt; inactive = no such curve, though single readings can be large or run the other way. A potency beside an inconclusive call is a rough fit, not a confirmed value.

Experiment: Primary qHTS for delayed death inhibitors of the malarial parasite plastid, 96 hour incubation
Conditions: P. falciparum luciferase reporter growth; series mostly up to 28.7 µM; activity change, negative = inhibition: at the top concentration
Method in brief: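 Plates of compound plus infected erythrocytes (2% hematocrit, 0.05% parasitemia final) incubate 96 hours, 37 C, 5% CO2. Detection reagent added; reduced luminescence from the parasites' luciferase reporter flags inhibition.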
% is scaled to controls: 0 for no effect and ±100 for the full control effect; potency is read from the fitted curve at half-maximal effect.

Question: Which Potency does the source give for `Cc1cc(Oc2ccc(C#N)cc2)nc(NCc2ccccc2)n1` here?
Answer: Its Potency is inconclusive: 4.15 µM [inhibitor, partial curve].

Question: With `CCCc1ccc(C(C)NC(=S)NC2CCCCC2)cc1` (centres undefined) as the compound, how does the “activity change, negative = inhibition” value read?
Answer: Its value is inactive: 32.9%.

Question: Which Potency does the source give for `CCOC(=O)c1ccccc1NC(=O)C1CC(=O)N(C2CCCCC2)C1` (centres undefined) here?
Answer: The Potency was inconclusive: 18.5 µM [inhibitor, single point].

Question: Which Potency does the source give for `O=C(Nc1ccc(S(=O)(=O)N2CCCC2)cc1)c1cncc(Br)c1` here?
Answer: Its Potency is inconclusive: 13.1 µM [inhibitor, single point].

Question: Which “activity change, negative = inhibition” value does the source give for `C/C(=N\OC(=O)c1cccc(C)c1)c1sc(-c2ccccc2)nc1C` here?
Answer: Its value is inactive: 287%.

Question: With `CN(C)c1cc2c(cc1NC(=O)c1ccccc1Cl)n(C)c(=O)n2C` as the compound, how does the Potency read?
Answer: Its Potency is inconclusive: 18.5 µM [inhibitor, single point].

Question: For `Cc1cccc(OCC(=O)NCCCNC(=O)c2ccncc2)c1`, which Potency is on record?
Answer: Its Potency is inconclusive: 4.65 µM [inhibitor, partial curve].

Question: For `CC(C)C(OC(=O)CN1C(=O)COc2ccccc21)C(=O)NC1CCCCC1` (centres undefined), which “activity change, negative = inhibition” value is on record?
Answer: Its value is inactive: 5.06%.

Question: With `CN(C)C(=O)c1ccc(-c2n[nH]c(=O)c3ccccc23)cc1` as the compound, how does the Potency read?
Answer: Its Potency is inconclusive: 14.7 µM [inhibitor, partial curve, poor fit].

Question: For `COc1cccc(C2CC(c3cccc(NS(C)(=O)=O)c3)=NN2C(=O)c2ccccc2)c1OC` (centres undefined), which Potency is on record?
Answer: Its Potency is inconclusive: 0.928 µM [inhibitor, full curve, poor fit].

Question: With `NNC(=O)c1sccc1OCc1ccc(Cl)cc1Cl` as the compound, how does the Potency read?
Answer: Its Potency is inconclusive: 2.33 µM [inhibitor, partial curve, poor fit].

Question: For `COc1nccnc1NS(=O)(=O)c1ccc(NC(=O)c2ccc(F)cc2)cc1`, which Potency is on record?
Answer: The Potency was inconclusive: 1.31 µM [inhibitor, partial curve, poor fit].

Question: For `Cc1ccccc1CNC(=O)c1ccc(CSCc2ccccc2)cc1`, which Potency is on record?
Answer: The Potency was active: 6.57 µM.

Question: For `O=C(C1CCCCC1)N1CCc2ccccc21`, which “activity change, negative = inhibition” value is on record?
Answer: Its value is inactive: -35.7%.

Question: Which Potency does the source give for `CCN(CC)c1nc(SCCOC(=O)Nc2ccccc2)nc(N(CC)CC)n1` here?
Answer: Its Potency is active: 10.4 µM.

Question: With `CCC(CC)N1CCN(C(=O)c2cc(OC)c(OC)c(OC)c2)CC1` as the compound, how does the Potency read?
Answer: Its Potency is inconclusive: 2.94 µM [inhibitor, single point].

Question: For `Cc1ccc(CNS(=O)(=O)/C=C/c2ccc3c(c2)OCO3)cc1`, which “activity change, negative = inhibition” value is on record?
Answer: The value was inactive: 46.5%.

Question: Which Potency does the source give for `CCN(CC)S(=O)(=O)c1ccc(OC)c(NC(=O)c2cc([N+](=O)[O-])ccc2Cl)c1` here?
Answer: Its Potency is inconclusive: 2.33 µM [inhibitor, partial curve, poor fit].

Question: For `Cc1occc1C(=O)NC1CCCCCC1`, which “activity change, negative = inhibition” value is on record?
Answer: Its value is inactive: -7.99%.

Question: For `O=C(NCCN1C(=O)S/C(=C\c2ccc(Cl)cc2)C1=O)c1ccc(F)c(S(=O)(=O)N2CCOCC2)c1`, which Potency is on record?
Answer: The Potency was inconclusive: 13.1 µM [inhibitor, single point].

Question: With `O=C(NCCc1c[nH]c2ccccc12)C(=O)Nc1ccccc1` as the compound, how does the Potency read?
Answer: Its Potency is inconclusive: 16.5 µM [inhibitor, single point].

Question: With `COc1ccc(NC(=S)N2CCN(C/C=C/c3ccccc3)CC2)cc1OC` as the compound, how does the Potency read?
Answer: The Potency was inconclusive: 18.5 µM [inhibitor, single point].

Question: Which Potency does the source give for `CCOC(=O)c1c(C)[nH]c(C)c1C(=O)COC(=O)c1cccc(C)c1O` here?
Answer: Its Potency is inconclusive: 4.65 µM [inhibitor, single point].

Question: For `O=C1[C@@H]2[C@@H]3C[C@@H]([C@H]4ON=C(c5ccc(OCc6ccccc6)cc5)[C@@H]34)[C@@H]2C(=O)N1c1ccc2c(c1)OCO2`, which Potency is on record?
Answer: The Potency was inconclusive: 4.15 µM [inhibitor, full curve, poor fit].

Question: With `Cn1cnc(S(=O)(=O)NC2CCN(Cc3ccccc3)CC2)c1` as the compound, how does the Potency read?
Answer: Its Potency is inconclusive: 18.5 µM [inhibitor, single point].

Question: With `CCOC(=O)N(CC)OC(=O)Nc1ccc(Cl)cc1` as the compound, how does the Potency read?
Answer: The Potency was inconclusive: 11.7 µM [inhibitor, single point].

Question: Which Potency does the source give for `CCOc1ccc(C2/C(=C(\O)c3ccc4c(c3)OCCO4)C(=O)C(=O)N2CCCN2CCOCC2)cc1OC` (centres undefined) here?
Answer: The Potency was inconclusive: 14.7 µM [inhibitor, single point].

Question: With `CCc1ccc(CNC(=O)CCC(=O)N2Cc3cccc(OC)c3Oc3ncccc32)cc1` as the compound, how does the “activity change, negative = inhibition” value read?
Answer: The value was inactive: -22.3%.

Question: With `COCCN(C(=O)COC(=O)c1ccccc1Oc1ccccc1)c1c(N)n(Cc2ccccc2)c(=O)[nH]c1=O` as the compound, how does the Potency read?
Answer: Its Potency is inconclusive: 18.5 µM [inhibitor, single point].

Question: Which Potency does the source give for `CNNC(=S)Nc1cccc(SC)c1` here?
Answer: The Potency was inconclusive: 13.1 µM [inhibitor, single point].

Question: Which “activity change, negative = inhibition” value does the source give for `CCOc1cc(C(=O)N(C)CC(=O)Nc2cccc(F)c2)ccc1OCC(=O)N1CCOCC1` here?
Answer: Its value is inactive: 7.47%.

Question: Which Potency does the source give for `N#Cc1sc(NCc2ccccc2)nc1Cl` here?
Answer: Its Potency is inconclusive: 18.5 µM [inhibitor, single point].

Question: For `COc1ccc(CN2C(=O)NC(=O)/C(=C\c3ccc(OC)c(OC)c3OC)C2=O)cc1`, which Potency is on record?
Answer: Its Potency is inconclusive: 4.65 µM [inhibitor, partial curve, poor fit].

Question: With `N#Cc1ccc2c(c1)C[C@]1(CCCCN3C(=O)c4ccccc4C3=O)OC3=C(C(=O)OC4(CCCCC4)C3)C2O1` as the compound, how does the Potency read?
Answer: Its Potency is inconclusive: 2.13 µM [inhibitor, single point].

Question: With `O=C(COc1ccccc1)Nc1ncccn1` as the compound, how does the “activity change, negative = inhibition” value read?
Answer: Its value is inactive: 32.1%.

Question: For `COc1ccc(-c2coc3c(CN4CCOCC4)c(O)ccc3c2=O)cc1`, which Potency is on record?
Answer: The Potency was inconclusive: 9.28 µM [inhibitor, single point].

Question: With `N#Cc1c(SCc2ccc(Cl)cc2)sc(C(=O)c2ccccc2)c1N` as the compound, how does the Potency read?
Answer: The Potency was inconclusive: 13.1 µM [inhibitor, single point].

Question: With `CN(C)C(CNC(=O)CSc1nc2ccccc2c(=O)n1Cc1ccco1)c1ccccc1` (centres undefined) as the compound, how does the Potency read?
Answer: Its Potency is inconclusive: 9.28 µM [inhibitor, single point].

Question: Which Potency does the source give for `CC(NC(=O)C1CCCN(S(=O)(=O)N2CCOCC2)C1)c1ccccc1` (centres undefined) here?
Answer: Its Potency is inconclusive: 0.828 µM [inhibitor, full curve, poor fit].

Question: With `CC(C)(C)OC(=O)C1C(=O)CC(C)(O)C(C(=O)OC(C)(C)C)C1c1cccnc1` (centres undefined) as the compound, how does the Potency read?
Answer: Its Potency is inconclusive: 14.7 µM [inhibitor, partial curve, poor fit].

Question: Which Potency does the source give for `CCOC(=O)c1oc2cccc(OCC(O)CNC(C)C)c2c1C` (centres undefined) here?
Answer: The Potency was active: 1.31 µM.

Question: With `COc1ccccc1C(=O)CSc1cccc[n+]1[O-]` as the compound, how does the Potency read?
Answer: Its Potency is inconclusive: 1.17 µM [inhibitor, partial curve, poor fit].

Question: For `CC(C)Cc1nc2c(nnn2Cc2ccccc2F)c(=O)[nH]1`, which Potency is on record?
Answer: The Potency was active: 9.28 µM.

Question: With `COc1ccc(/C=C2\SC(=S)N(CC(=O)N(C)C3CCS(=O)(=O)C3)C2=O)cc1` (centres undefined) as the compound, how does the “activity change, negative = inhibition” value read?
Answer: Its value is inactive: -5.71%.

Question: With `O=C(NCCO)/C(=C/c1ccc(Br)cc1)NC(=O)c1cccs1` as the compound, how does the “activity change, negative = inhibition” value read?
Answer: The value was inactive: -0.997%.

Question: Which “activity change, negative = inhibition” value does the source give for `CCn1cc(CN2CCC(n3nccc3NC(=O)c3cccc(F)c3)CC2)cn1` here?
Answer: Its value is inactive: 7.11%.

Question: With `COC(=O)CN(C#N)c1nc(NC(C)C)nc(NC(C)C)n1` as the compound, how does the “activity change, negative = inhibition” value read?
Answer: The value was inactive: 33.9%.

Question: For `O=C1Nc2cc(C(=O)N3CCN(Cc4ccccc4)CC3)ccc2SC1N1CCOCC1` (centres undefined), which Potency is on record?
Answer: The Potency was inconclusive: 16.5 µM [inhibitor, single point].

Question: With `COc1c(-c2ccc([N+](=O)[O-])cc2[N+](=O)[O-])c(=O)n(C)c(=O)n1C` as the compound, how does the “activity change, negative = inhibition” value read?
Answer: The value was inactive: 3.78%.

Question: Which Potency does the source give for `c1ccc(CN(Cc2ccccc2)c2c3c(nc4ncnn24)CCC3)cc1` here?
Answer: The Potency was inconclusive: 9.28 µM [inhibitor, single point].

Question: With `C=C(C)COc1ccc(-c2ncncc2-c2ccc(Cl)cc2)c(O)c1` as the compound, how does the Potency read?
Answer: Its Potency is active: 2.33 µM.

Question: Which Potency does the source give for `O=C(COc1ccccc1CNCc1ccccc1)Nc1ccccc1` here?
Answer: Its Potency is inconclusive: 11.7 µM [inhibitor, partial curve, poor fit].

Question: For `CC(=O)N1CC(=O)Nc2ccc(C)cc2C1c1ccccc1` (centres undefined), which “activity change, negative = inhibition” value is on record?
Answer: Its value is inactive: 9.16%.

Question: Which Potency does the source give for `CC(C)n1c(O)c(/C=C2\C=NN=C2c2ccccc2)sc1=S` here?
Answer: The Potency was inconclusive: 4.15 µM [inhibitor, partial curve, poor fit].

Question: With `Cc1ccccc1N1CCN(c2ccc(NC(=O)C3CCCCC3C(=O)O)cc2)CC1` (centres undefined) as the compound, how does the “activity change, negative = inhibition” value read?
Answer: The value was inactive: -3.17%.

Question: Which “activity change, negative = inhibition” value does the source give for `CCOCCc1c(O)nc(SCC(=O)N2CCOCC2)[nH]c1=O` here?
Answer: The value was inactive: 2.7%.

Question: With `CCOc1ccccc1NC(=O)c1cccc(NC(=O)C(C)C)c1` as the compound, how does the Potency read?
Answer: The Potency was inconclusive: 18.5 µM [inhibitor, single point].

Question: With `O=C(OCCOCCN=C1NS(=O)(=O)c2ccccc21)c1ccncc1` as the compound, how does the Potency read?
Answer: The Potency was inconclusive: 2.62 µM [inhibitor, single point].

Question: For `Cc1ccc(NC(=O)CSc2nnc(CN3CCOCC3)n2-c2ccccc2)cc1`, which Potency is on record?
Answer: Its Potency is inconclusive: 10.4 µM [inhibitor, single point].

Question: With `CC1CCN(CCc2nc3cc(NC(=O)COc4ccc([N+](=O)[O-])cc4)ccc3n2C)CC1` as the compound, how does the Potency read?
Answer: The Potency was inconclusive: 3.29 µM [inhibitor, full curve, poor fit].

Question: With `COc1cc(/C=N/NC(=O)c2cncc(Br)c2)cc([N+](=O)[O-])c1O` as the compound, how does the Potency read?
Answer: The Potency was inconclusive: 18.5 µM [inhibitor, single point].

Question: For `NS(=O)(=O)c1ccc(CCNC(=O)CNC(=O)c2ccccc2F)cc1`, which “activity change, negative = inhibition” value is on record?
Answer: The value was inactive: 8.86%.

Question: For `Cc1ccc(N(C)C(=O)N2CCN(c3ccccn3)CC2)cc1`, which “activity change, negative = inhibition” value is on record?
Answer: Its value is inactive: -21.8%.

Question: Which Potency does the source give for `COc1cccc(Cn2c(=S)[nH]c3ccc(N4CCOCC4)cc3c2=O)c1` here?
Answer: Its Potency is inconclusive: 0.828 µM [inhibitor, full curve, poor fit].

Question: Which Potency does the source give for `c1ccc(CN2CCC(N3CCN(Cc4ccc5c(c4)OCO5)CC3)CC2)cc1` here?
Answer: The Potency was inconclusive: 0.0041 µM [inhibitor, full curve, poor fit].

Question: For `Cc1occc1C(=O)NCc1ccc(C(=O)O)o1`, which “activity change, negative = inhibition” value is on record?
Answer: Its value is inactive: 4.62%.

Question: For `Cc1ccc(S(=O)(=O)Cc2ccc(C(=O)N3CCCC3)o2)cc1`, which “activity change, negative = inhibition” value is on record?
Answer: Its value is inactive: -23.4%.

Question: For `Cc1ccc(-c2nn(-c3ccccc3)cc2/C=C/C(=O)Nc2cccc(S(N)(=O)=O)c2)cc1`, which Potency is on record?
Answer: The Potency was inconclusive: 4.15 µM [inhibitor, partial curve, poor fit].

Question: For `O=C(CNC(=O)c1ccccc1)N/N=C/c1cccs1`, which Potency is on record?
Answer: Its Potency is inconclusive: 18.5 µM [inhibitor, single point].
